# Source: patent US5196410A, “Transdermal flux enhancing compositions” (priority 1991, dated 1993)
# Like-named read-outs stand apart in the source and are kept apart here.
structure (smiles),measurement,setting,value
Cc1cnc(C(=O)NCCc2ccc(S(=O)(=O)NC(=O)NC3CCCCC3)cc2)cn1 [Glipizide],Time Lag,"20% v/v ethanol, 0.5% v/v Azone, 6.8 mg/ml",3.3 h
same,Time Lag,"20% v/v ethanol, no Azone, 6.7 mg/ml",0.5 h
same,"transport rate, times greater than 55% ethanol vehicle","30% ethanol, 0.5% v/v Azone vs 55% ethanol",approximately 3.5 times
same,Time Lag,"30% v/v ethanol, 0.5% v/v Azone, 8.1 mg/ml",1.7 h
same,Time Lag,"30% v/v ethanol, no Azone, 8.2 mg/ml",0.4 h
same,Time Lag,"55% v/v ethanol, 0.5% v/v Azone, 17.5 mg/ml",3.6 h
same,Time Lag,"55% v/v ethanol, no Azone, 17.9 mg/ml",4.6 h
